Assay results taken from PubChem BioAssay AID1487 (National Center for Advancing Translational Sciences (NCATS), 2009).
About 25 (0.01%) of roughly 200,000 compounds were called active. The shares of active, inactive and inconclusive entries below differ from those in the screen. Calls come from the whole dose curve; as a rule, active = well fitted inhibition curve with a large enough effect in the signal ratio, with a control signal flat (not every such curve was filed as active); inconclusive = small, poorly fitted or top-dose-only effect, or effect the other way, or a change in a side signal; inactive = flat fitted curve, though single readings scatter; the % refers to the signal ratio. A potency beside an inconclusive call is a rough fit, not a confirmed value.
% is set by controls: 0 for no effect and ±100 for the full control effect; potency is the fitted concentration of half-maximal effect.

Experiment: qHTS Assay for Modulators of Lamin A Splicing
Conditions: HeLa LMNA splicing GFP/RFP minigene ratio, 48 h; ratio change, negative = inhibition: at 46.1 µM (top of the series) unless noted
Summary of the method: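 Read-out is the ratio of GFP to DsRed2 object intensity, acquired by 488 nm laser-scanning cytometry on HeLa lamin A-EGFP minigene reporter cells. Compound incubation 48 hrs at 37 °C in Opti-MEM with 2% FBS; DMSO 0.5% final.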
For COC(=O)c1c(-c2ccc(C)cc2)csc1NC(=O)c1c(-c2ccccc2)noc1C, the Potency was inconclusive: 7.08 µM [falling, partial curve]. With CCOC(=O)c1ccc(NS(=O)(=O)c2ccc(Cl)nc2)cc1 the ratio change, negative = inhibition was inconclusive: -22.3% [at 46 µM]. With NS(=O)(=O)c1ccc(NC(=O)c2csnn2)cc1 the ratio change, negative = inhibition was inconclusive: 16.1% [at 46 µM]. For Cc1ccc(C(=O)NCC(c2ccco2)S(=O)(=O)c2ccc(Cl)cc2)cc1C (centres undefined), the “ratio change, negative = inhibition” value was inactive: 14% [at 46 µM]. For Cc1cn2c(=O)cc(COC(=O)c3ccc(NC(=O)C(C)Oc4ccccc4)cc3)nc2s1 (centres undefined), the ratio change, negative = inhibition was inconclusive: -25.8% [at 46 µM]. For COc1ccc(CCNC(=O)c2cc(=O)[nH]c3ccc(S(=O)(=O)N4CCCCC4C)cc23)cc1OC (centres undefined), the ratio change, negative = inhibition was inconclusive: -16.9% [at 46 µM]. In the case of O=C(CCc1nc(-c2ccccc2)no1)Nc1cc(C(F)(F)F)ccc1Cl, the ratio change, negative = inhibition is reported as inconclusive: 1.34%. For CCNS(=O)(=O)c1ccc(NC(=O)Cn2cc([N+](=O)[O-])cn2)cc1, the “ratio change, negative = inhibition” value was inactive: -3.16% [at 46 µM]. For Cn1cnnc1Sc1nc2c(c(=O)n(C)c(=O)n2C)n1Cc1ccccc1Cl, the “ratio change, negative = inhibition” value was inactive: 1.04%. For CCSc1ccc2nnc(-c3cccs3)n2n1, the ratio change, negative = inhibition was inconclusive: 3.12% [at 46 µM]. For CC/C(=N\NC(=O)c1ccoc1C)c1ccc(C)o1, the ratio change, negative = inhibition was inconclusive: 3.26%. In the case of O=c1[nH]c(=O)n([C@H]2C[C@H](O)[C@@H](CO)O2)cc1Br, the ratio change, negative = inhibition is reported as inconclusive: 31.7%. For O=C(CSc1ccc([N+](=O)[O-])cn1)Nc1ccc2c(c1)OCCO2, the ratio change, negative = inhibition was inconclusive: -13.1% [at 46 µM]. In the case of O=c1c2ccc([N+](=O)[O-])c3cccc(c32)c2nc3ccccc3n12, the ratio change, negative = inhibition is reported as inconclusive: -37.9%. With CCOC(=O)c1nn(-c2ccc(OC)cc2)c(=O)c2c(N)scc12 the “ratio change, negative = inhibition” value was inactive: -13%. For COc1ccc(OC)c2c1C(=O)c1ccccc1C2=O, the ratio change, negative = inhibition was inconclusive: 11.3%. In the case of CC(=O)Nc1ccc(Sc2ncccc2C(=O)Nc2ccc(F)cc2)cn1, the Potency is reported as inconclusive: 17.8 µM [activator, partial curve, poor fit]. In the case of COc1cccc(-c2ccc3ncnc(N4CCNCC4)c3c2)c1, the “ratio change, negative = inhibition” value is reported as inactive: -5.88%. For O=C(OCCN1CCOCC1)c1cccs1, the Potency was inconclusive: 14.1 µM [activator, partial curve, poor fit]. With CCc1cccc(CC)c1NC(=S)NCCc1c(C)[nH]c2ccc(C)cc12 the ratio change, negative = inhibition was inconclusive: -62.8%. In the case of CC1CCCN(CCCNC(=O)c2cc3c(Cl)nc4ccccc4c3s2)C1 (centres undefined), the Potency is reported as inconclusive: 17.8 µM [inhibitor, single point]. In the case of O=C(Nc1ccc2nc(-c3ccco3)[nH]c2c1)c1cccs1, the “ratio change, negative = inhibition” value is reported as inactive: -7.02%. With FC(F)(F)c1cccc(N2CCN(C(=S)NC3CCCCC3)CC2)c1 the Potency was inconclusive: 35.5 µM [fluorescent, single point]. For Cc1cccc(NC(=O)CNC(=O)COc2ccc(-c3ccc(C#N)cc3)cc2)c1C, the Potency was inconclusive: 12.6 µM [fluorescent, single point]. For COCC(C)NC(=O)CSc1nc(-c2ccccc2)c(-c2ccccc2)o1 (centres undefined), the Potency was inconclusive: 35.5 µM [falling, single point]. For O=C1OCC2=C1C(c1ccc(F)cc1)Sc1ccccc1N2 (centres undefined), the “ratio change, negative = inhibition” value was inactive: -6.49%. For CC(C(=O)NCCC1=CCCCC1)c1ccc([N+](=O)[O-])cc1 (centres undefined), the ratio change, negative = inhibition was inconclusive: -15.8% [at 9.22 µM]. For O=C(/C=C/c1ccccc1Cl)NCCc1ccc(F)cc1, the ratio change, negative = inhibition was inconclusive: -4.49%. In the case of Cc1cc(-c2ccc(/C=N/n3cnnc3)o2)ccc1Cl, the ratio change, negative = inhibition is reported as inconclusive: 20.5%. For Cc1cc(C)c(S(=O)(=O)NCC(c2ccco2)S(=O)(=O)c2cccs2)c(C)c1 (centres undefined), the “ratio change, negative = inhibition” value was inactive: 6.55% [at 46 µM]. For CC(C)COc1nc2ccccc2c(=O)n1OCC(=O)O, the “ratio change, negative = inhibition” value was inactive: -5.6%. In the case of COc1ccc(CNc2ccnc(-c3ccoc3)n2)c(OC)c1, the ratio change, negative = inhibition is reported as inconclusive: -28.7%. In the case of Cc1cc(C)nc(SCc2ccc(F)cc2)n1, the “ratio change, negative = inhibition” value is reported as inactive: 13.4% [at 46 µM]. With Cc1cccc(-c2noc(CN(C)S(=O)(=O)c3cc(Cl)ccc3Cl)n2)c1 the Potency was inconclusive: 35.5 µM [falling, single point]. In the case of CCOC(=O)CNC(=O)c1cc2c(=O)n3cccc(C)c3nc2n1C, the “ratio change, negative = inhibition” value is reported as inactive: 16.2% [at 46 µM]. In the case of CCCc1cc(=O)[nH]c(SCC(=O)Nc2ccc(C)cc2)n1, the “ratio change, negative = inhibition” value is reported as inactive: 43.1% [at 46 µM]. For CCOc1ccc(CNC(=O)c2ccc3c(c2)nc2n3CCCCC2)cc1, the ratio change, negative = inhibition was inconclusive: -18.1% [at 46 µM]. With CSc1nsc(/C=C/Nc2ccc(C(=O)O)cc2)c1C#N the ratio change, negative = inhibition was inactive: 16.6% [at 9.22 µM]. In the case of Cc1nc2ccccc2nc1CSc1nncs1, the ratio change, negative = inhibition is reported as inconclusive: 21.3%. For CC(C)Oc1ccc(CNC(=O)C2CCN(Cc3cc4ccccc4n3Cc3ccccc3)CC2)cc1, the ratio change, negative = inhibition was inconclusive: -33.6% [at 46 µM]. With Cc1ccc(S(=O)(=O)N2CCC(=O)N(CCOC(=O)Nc3ccc(F)cc3)CC2)cc1 the ratio change, negative = inhibition was inconclusive: -47.7%. With Cc1ccc(-c2noc(-c3cc4ccccc4oc3=O)n2)cc1 the “ratio change, negative = inhibition” value was inactive: -12.2%. With NC(=S)NNC(=S)Nc1ccccc1 the ratio change, negative = inhibition was inconclusive: 49.2% [at 46 µM]. With Cc1cc(C(=O)COc2cc(F)ccc2[N+](=O)[O-])c(C)n1C1CC1 the ratio change, negative = inhibition was inconclusive: -7.59% [at 46 µM]. In the case of CN1c2ccccc2C(C)(C)C12C=Cc1cc(O)ccc1O2 (centres undefined), the ratio change, negative = inhibition is reported as inconclusive: 0.996%. In the case of COc1cc([N+](=O)[O-])ccc1NC(=O)Nc1nc2c(s1)CCCC2, the ratio change, negative = inhibition is reported as inconclusive: -1%. With COc1ccc(S(=O)(=O)Nc2cccc(Cl)c2)cc1OC the “ratio change, negative = inhibition” value was inactive: -7.31%. In the case of O=C(NCCCNc1ccc([N+](=O)[O-])cc1)C(F)(F)F, the ratio change, negative = inhibition is reported as inconclusive: -2.08%. For Nc1nnc(N2CCc3ccccc32)s1, the Potency was inconclusive: 17.8 µM [inhibitor, single point]. For c1ccc(CCc2nc3ccccc3[nH]2)cc1, the ratio change, negative = inhibition was inconclusive: 15.6% [at 46 µM]. With Cc1occc1-c1nnc(SCC(=O)N2CCc3ccccc32)o1 the “ratio change, negative = inhibition” value was inactive: 10.6%. With O=C(NN=C1CCCC1)c1cccs1 the “ratio change, negative = inhibition” value was inactive: -12.6%. In the case of COc1ccccc1/C=C\C=N\n1c(C2CCCCC2)n[nH]c1=S, the ratio change, negative = inhibition is reported as inactive: -2.06% [at 0.0737 µM]. For Cc1ccc(S(=O)(=O)Nc2ccccc2CNc2ccc(Br)cn2)cc1, the ratio change, negative = inhibition was inconclusive: -47.4%.
